Values quoted from earlier work, collected in US20080269188A1, “Oatp-C Gene C463a Polymorphism Underlies Variable Response to Statin Therapy” (INSERM, priority 2005, published 2008).
For at least one compound, name, drawing or mass did not settle the structure. Marks after values point to notes of the source that are not given here.

Conditions: taken from Buse J., Clinical Diabetes 2003; cited from earlier work

CC[C@H](C)C(=O)O[C@H]1C[C@H](O)C=C2C=C[C@H](C)[C@H](CC[C@@H](O)C[C@@H](O)CC(=O)O)[C@H]21 [Pravastatin, pravastatin]
Equipotent dose: 60* mg
